Test results reported in doi:10.1101/2024.05.22.594599.

Legend:
[1] = biological target: T1, Hakai (human (endogenous in SU.86.86 and PANC-1)) (UniProt Q75N03); assay: co-IP
T1 sequence: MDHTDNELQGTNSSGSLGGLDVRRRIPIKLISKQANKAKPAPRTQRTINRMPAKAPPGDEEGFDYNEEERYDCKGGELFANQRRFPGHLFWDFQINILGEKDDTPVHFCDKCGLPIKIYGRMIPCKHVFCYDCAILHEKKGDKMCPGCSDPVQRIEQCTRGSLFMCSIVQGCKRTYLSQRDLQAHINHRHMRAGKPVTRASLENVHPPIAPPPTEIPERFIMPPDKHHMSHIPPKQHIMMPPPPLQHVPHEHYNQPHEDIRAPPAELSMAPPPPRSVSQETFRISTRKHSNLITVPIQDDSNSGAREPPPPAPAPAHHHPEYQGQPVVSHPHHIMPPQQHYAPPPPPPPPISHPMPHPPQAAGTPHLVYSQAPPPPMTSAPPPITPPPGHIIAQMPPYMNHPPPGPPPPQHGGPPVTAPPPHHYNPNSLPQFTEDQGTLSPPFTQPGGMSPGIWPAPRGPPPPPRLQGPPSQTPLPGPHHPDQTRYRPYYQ

[2] = biological target: E-cadherin (human (endogenous in SU.86.86 and PANC-1)); assay: co-IP

E-cadherin
binding [1]: binds

B1: Hakai (protein, UniProt Q75N03 1-491)
chain: MDHTDNELQGTNSSGSLGGLDVRRRIPIKLISKQANKAKPAPRTQRTINRMPAKAPPGDEEGFDYNEEERYDCKGGELFANQRRFPGHLFWDFQINILGEKDDTPVHFCDKCGLPIKIYGRMIPCKHVFCYDCAILHEKKGDKMCPGCSDPVQRIEQCTRGSLFMCSIVQGCKRTYLSQRDLQAHINHRHMRAGKPVTRASLENVHPPIAPPPTEIPERFIMPPDKHHMSHIPPKQHIMMPPPPLQHVPHEHYNQPHEDIRAPPAELSMAPPPPRSVSQETFRISTRKHSNLITVPIQDDSNSGAREPPPPAPAPAHHHPEYQGQPVVSHPHHIMPPQQHYAPPPPPPPPISHPMPHPPQAAGTPHLVYSQAPPPPMTSAPPPITPPPGHIIAQMPPYMNHPPPGPPPPQHGGPPVTAPPPHHYNPNSLPQFTEDQGTLSPPFTQPGGMSPGIWPAPRGPPPPPRLQGPPSQTPLPGPHHPDQTRYRPYYQ
binding [2]: binds

These are yes or no findings as the source states them, for the method shown. In cells and extracts the contact can be indirect. Binding calls can cover weak binding; strength is not graded here.
